Reference: PubChem BioAssay AID540276 (National Center for Advancing Translational Sciences (NCATS), 2011)
In all, about 300,000 compounds went through this assay and about 5,400 (1.8%) were called active. This list was built around the results that the source calls inconclusive (neither active nor inactive); the mix of calls is not that of the screen. The call rests on the fitted dose curve; tested in HEK293 cells. Potencies beside an inconclusive call are fits to weak or partial responses and may not hold up.
Potency means the concentration at half of the fitted maximal effect.

Assay: qHTS for inhibitors of binding or entry into cells for Marburg Virus
Conditions: Marburg virus pseudotyped entry inhibition, cell reporter; series mostly up to 37.8 µM
With `CCn1c(Cc2ccc(OC)cc2)nnc1SCC(=O)NC1CC1` the Potency was inconclusive: 5.62 µM [inhibitor, single point]. With `COc1ccccc1CCc1nnc(CCC(=O)NC(C)Cc2ccsc2)o1` (stereo not drawn) the Potency was inconclusive: 0.562 µM [activator, full curve, poor fit]. In the case of `CN(C)C(=O)COC(=O)/C=C/c1cn(-c2ccccc2)nc1-c1cccs1`, the Potency is reported as “inactive”. With `CC(=O)c1cccc(CN2CCC(C(=O)Nc3ccc(-c4cccc(C)c4)cc3)CC2)c1` the Potency was inconclusive: 7.08 µM [inhibitor, full curve, poor fit]. In the case of `CC(C(=O)NCc1cccc(Br)c1)n1ncn2cccc2c1=O` (stereo not drawn), the Potency is reported as inconclusive: 31.6 µM [inhibitor, single point]. With `O=C(Nc1ccccc1)N1C2CCC1CC(O)(c1cccnc1)C2` (stereo not drawn) the Potency was “inactive”. In the case of `COc1ccc(CNC(=O)C2CCN(S(=O)(=O)c3c(C)noc3/C=C/c3cccs3)CC2)cc1`, the Potency is reported as “inactive”. In the case of `COc1ccc(C(=O)Nc2cc(Cl)cc(Cl)c2)c(OC)n1`, the Potency is reported as inconclusive: 1.26 µM [inhibitor, single point]. With `CS/C(=C/[N+](=O)[O-])Nc1cccc2c1C(C)CC2(C)C` (stereo not drawn) the Potency was inconclusive: 35.5 µM [inhibitor, single point]. With `FC(F)Oc1ccc(N=C2SCC3CCCCN23)cc1` (stereo not drawn) the Potency was “inactive”. With `CCSc1nc(O)cc(=O)n1CC` the Potency was “inactive”. With `COc1ccc(/C=C/C(=O)NC(=S)Nc2ccc(S(=O)(=O)Nc3ccc(OC)nn3)cc2)cc1` the Potency was inconclusive: 0.562 µM [inhibitor, full curve, poor fit]. For `COC(=O)CCCC1=CC2=CC(=O)C(C)(OC(=O)c3cccs3)C(=O)C2=CN1c1ccc(OC)cc1` (stereo not drawn), the Potency was inconclusive: 5.31 µM [inhibitor, single point]. With `O=C(O)c1ccc2c(c1)C(=O)N(NC(=O)c1ccccc1)C2=O` the Potency was “inactive”. For `COc1ccc(N2CCN(C(=O)c3cn(C)c4ccc(S(=O)(=O)N(C)C5CCCCC5)cc4c3=O)CC2)cc1`, the Potency was “inactive”. For `COc1ccccc1N1CCN(C(=O)c2c(-c3c(F)cccc3Cl)noc2C)CC1`, the Potency was inconclusive: 11.2 µM [inhibitor, partial curve, poor fit]. For `O=C(NNC(=O)C1CCN(S(=O)(=O)c2cccc(C(F)(F)F)c2)CC1)C1CC1`, the Potency was “inactive”. With `Cc1ccccc1OCC(=O)Nc1ccc(N2CCN(C(=O)c3ccco3)CC2)cc1` the Potency was inconclusive: 10 µM [inhibitor, partial curve, poor fit]. For `O=C(c1ccc2ccccc2c1)C1CCCN(S(=O)(=O)c2cccnc2)C1` (stereo not drawn), the Potency was inconclusive: 35.5 µM [inhibitor, single point]. For `COc1cc2c(cc1OC)CN(c1nc(-c3cccnc3)nc3ccccc13)CC2`, the Potency was inconclusive: 14.1 µM [inhibitor, single point]. For `CCn1cc([N+](=O)[O-])c(C(=O)N2N=C(c3ccc(OC)cc3OC)CC2c2ccccc2O)n1` (stereo not drawn), the Potency was “inactive”. For `Cc1ccc2cccc(OCC(=O)Nc3cccc(S(=O)(=O)N4CCCC4)c3)c2n1`, the Potency was inconclusive: 10 µM [inhibitor, partial curve, poor fit]. With `Cc1ccc(S(=O)(=O)N2CCN(c3cc4c(cc3[N+](=O)[O-])n(C)c(=O)n4C)CC2)cc1` the Potency was active: 23.1 µM. For `O=C(CSc1n[nH]c(=O)n1-c1cccnc1)Nc1ccccc1Cl`, the Potency was inconclusive: 1.41 µM [activator, full curve, poor fit]. With `COCCNC(=O)c1ccc2c(c1)N(Cc1ccc(C(F)(F)F)cc1)C(=O)c1ccccc1S2` the Potency was inconclusive: 6.31 µM [inhibitor, single point]. For `CSc1ccc(C(=O)N2CCc3ccc(NC(=O)c4ccccn4)cc3C2)cc1`, the Potency was inconclusive: 25.1 µM [inhibitor, single point]. With `Cc1ccc2nc(-c3ccc(NC(=O)CSc4ccccc4)cc3)[nH]c2c1` the Potency was inconclusive: 29.1 µM [inhibitor, single point]. For `CCOC(=O)c1c(NC(=O)CSc2nncs2)sc(C)c1-c1ccccc1`, the Potency was inconclusive: 8.2 µM [inhibitor, partial curve, poor fit]. For `CCCCCn1c(=O)[nH]c2cc(C(=O)NCc3ccc(F)cc3)ccc2c1=O`, the Potency was “inactive”. For `CSc1ccccc1NC(=O)c1cccnc1`, the Potency was “inactive”. In the case of `CCN(CC)CC(O)COCCC12CC3CC(CC(C3)C1)C2` (stereo not drawn), the Potency is reported as inconclusive: 13 µM [inhibitor, partial curve, poor fit]. With `CCOC(=O)c1sc(NC(=O)CN(CC(C)C)CC(C)C)c(C(=O)OCC)c1C` the Potency was inconclusive: 29.1 µM [inhibitor, single point]. With `O=c1[nH]c(CN2CCCC2)nc2sc3c(c12)CCC3` the Potency was “inactive”. In the case of `Cc1ccc(C)c(OCC(=O)Nc2nonc2NC(=O)COc2cc(C)ccc2C)c1`, the Potency is reported as “inactive”. In the case of `Cc1ccc(-c2nc(-c3cccnc3)sc2CC(=O)Nc2ccc3nc(C)sc3c2)cc1`, the Potency is reported as inconclusive: 35.5 µM [inhibitor, single point]. For `Cc1cc(C)cc(NC(=O)Nc2ccc(NC(=O)c3ccccc3O)cc2)c1`, the Potency was inconclusive: 0.891 µM [inhibitor, full curve, poor fit]. With `Cc1cc(Nc2cccc(F)c2)nc(-c2ccccc2O)n1` the Potency was inconclusive: 29.1 µM [inhibitor, single point]. In the case of `CC(=O)OC1CC2(O)C3CCC4CC(O)CCC4(C)C3CCC2(C)C1C1=CC(=O)OC1` (stereo not drawn), the Potency is reported as inconclusive: 0.178 µM [inhibitor, full curve, poor fit]. With `CCCCCN1CC(O)=C(c2nc3ccccc3[nH]2)C1=N` the Potency was inconclusive: 3.16 µM [activator, partial curve]. In the case of `O=c1ccc2cc(S(=O)(=O)Nc3ccccc3F)ccc2o1`, the Potency is reported as inconclusive: 6.31 µM [inhibitor, full curve, poor fit]. With `COc1ccc([C@H]2C[C@H](C(F)(F)F)n3ncc(C(=O)Nc4cccc(O)c4)c3N2)cc1OC` the Potency was inconclusive: 0.794 µM [inhibitor, full curve, poor fit]. For `O=C(CC1CCCCC1)c1c(O)c2ccccc2oc1=O`, the Potency was “inactive”. With `Nc1cc(Nc2ccc(Br)cc2)nc(N)n1` the Potency was “inactive”.
